Measurements: publication PMC11083118
Results are given in words; binding and its absence hold for the method and conditions named. In cells and extracts the contact can be indirect. A result given as binding can be weak or reduced; the word gives no strength. Values belong to the molecule of their own block, whether it stands above or below them.

Assays:
[1] = molecular target: T1, α-catenin (rat (endogenous in IAR-20, IAR-6-1, IAR-6-1-DNE)) (UniProt Q5U302); assay: co-IP; total cell lysates (10 mM Tris-HCl pH 7.5, 0.5 mM EDTA, 150 mM NaCl, 0.5% Na deoxycholate, 1% NP-40, protease and phosphatase inhibitors) incubated with primary antibody, then Protein A or G agarose, +4 °C; Western blot; sparse cultures of control IAR-20, IAR-20 treated with EGF for 20 min, IAR-6-1 and IAR-6-1-DNE cells
T1 sequence: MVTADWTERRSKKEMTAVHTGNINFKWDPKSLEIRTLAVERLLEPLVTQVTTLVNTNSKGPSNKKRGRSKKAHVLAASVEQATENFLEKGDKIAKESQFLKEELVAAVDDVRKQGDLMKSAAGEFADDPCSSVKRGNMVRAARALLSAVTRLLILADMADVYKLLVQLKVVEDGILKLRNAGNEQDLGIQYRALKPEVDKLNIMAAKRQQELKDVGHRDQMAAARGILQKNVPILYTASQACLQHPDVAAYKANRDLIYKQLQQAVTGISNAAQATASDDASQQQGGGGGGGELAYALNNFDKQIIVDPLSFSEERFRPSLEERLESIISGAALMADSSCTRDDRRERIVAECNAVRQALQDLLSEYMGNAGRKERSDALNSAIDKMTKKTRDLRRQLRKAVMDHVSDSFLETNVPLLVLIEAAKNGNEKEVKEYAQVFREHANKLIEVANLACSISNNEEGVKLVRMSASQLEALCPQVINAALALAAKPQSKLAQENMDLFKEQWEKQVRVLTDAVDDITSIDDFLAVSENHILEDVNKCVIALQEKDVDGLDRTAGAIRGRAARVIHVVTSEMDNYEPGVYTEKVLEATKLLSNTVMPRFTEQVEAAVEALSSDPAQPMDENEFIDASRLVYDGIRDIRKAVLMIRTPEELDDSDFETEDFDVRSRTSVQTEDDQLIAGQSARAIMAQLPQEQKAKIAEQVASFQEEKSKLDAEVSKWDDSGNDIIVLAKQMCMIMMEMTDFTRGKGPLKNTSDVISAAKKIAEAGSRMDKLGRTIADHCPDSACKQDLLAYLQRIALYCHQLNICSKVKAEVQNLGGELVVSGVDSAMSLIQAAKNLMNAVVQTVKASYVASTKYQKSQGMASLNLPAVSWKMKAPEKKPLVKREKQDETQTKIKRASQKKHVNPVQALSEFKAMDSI

[2] = molecular target: zyxin (rat (endogenous in IAR-20, IAR-6-1, IAR-6-1-DNE)); assay: as above

binding [1]: binds
Molecule: E-cadherin (rat (endogenous in IAR-6-1, IAR-6-1-DNE))

binding [2]: binds
B1: α-catenin (protein, UniProt Q5U302 1-922)
chain: T1 sequence
